# Data as given in PMC6885518.
# Protein sequences, listed by entry. Tags and fused reporters are not part of them. Lines headed by an entry give the natural chain unless they say otherwise; changes in a name come on top.
# UniProt Q01097: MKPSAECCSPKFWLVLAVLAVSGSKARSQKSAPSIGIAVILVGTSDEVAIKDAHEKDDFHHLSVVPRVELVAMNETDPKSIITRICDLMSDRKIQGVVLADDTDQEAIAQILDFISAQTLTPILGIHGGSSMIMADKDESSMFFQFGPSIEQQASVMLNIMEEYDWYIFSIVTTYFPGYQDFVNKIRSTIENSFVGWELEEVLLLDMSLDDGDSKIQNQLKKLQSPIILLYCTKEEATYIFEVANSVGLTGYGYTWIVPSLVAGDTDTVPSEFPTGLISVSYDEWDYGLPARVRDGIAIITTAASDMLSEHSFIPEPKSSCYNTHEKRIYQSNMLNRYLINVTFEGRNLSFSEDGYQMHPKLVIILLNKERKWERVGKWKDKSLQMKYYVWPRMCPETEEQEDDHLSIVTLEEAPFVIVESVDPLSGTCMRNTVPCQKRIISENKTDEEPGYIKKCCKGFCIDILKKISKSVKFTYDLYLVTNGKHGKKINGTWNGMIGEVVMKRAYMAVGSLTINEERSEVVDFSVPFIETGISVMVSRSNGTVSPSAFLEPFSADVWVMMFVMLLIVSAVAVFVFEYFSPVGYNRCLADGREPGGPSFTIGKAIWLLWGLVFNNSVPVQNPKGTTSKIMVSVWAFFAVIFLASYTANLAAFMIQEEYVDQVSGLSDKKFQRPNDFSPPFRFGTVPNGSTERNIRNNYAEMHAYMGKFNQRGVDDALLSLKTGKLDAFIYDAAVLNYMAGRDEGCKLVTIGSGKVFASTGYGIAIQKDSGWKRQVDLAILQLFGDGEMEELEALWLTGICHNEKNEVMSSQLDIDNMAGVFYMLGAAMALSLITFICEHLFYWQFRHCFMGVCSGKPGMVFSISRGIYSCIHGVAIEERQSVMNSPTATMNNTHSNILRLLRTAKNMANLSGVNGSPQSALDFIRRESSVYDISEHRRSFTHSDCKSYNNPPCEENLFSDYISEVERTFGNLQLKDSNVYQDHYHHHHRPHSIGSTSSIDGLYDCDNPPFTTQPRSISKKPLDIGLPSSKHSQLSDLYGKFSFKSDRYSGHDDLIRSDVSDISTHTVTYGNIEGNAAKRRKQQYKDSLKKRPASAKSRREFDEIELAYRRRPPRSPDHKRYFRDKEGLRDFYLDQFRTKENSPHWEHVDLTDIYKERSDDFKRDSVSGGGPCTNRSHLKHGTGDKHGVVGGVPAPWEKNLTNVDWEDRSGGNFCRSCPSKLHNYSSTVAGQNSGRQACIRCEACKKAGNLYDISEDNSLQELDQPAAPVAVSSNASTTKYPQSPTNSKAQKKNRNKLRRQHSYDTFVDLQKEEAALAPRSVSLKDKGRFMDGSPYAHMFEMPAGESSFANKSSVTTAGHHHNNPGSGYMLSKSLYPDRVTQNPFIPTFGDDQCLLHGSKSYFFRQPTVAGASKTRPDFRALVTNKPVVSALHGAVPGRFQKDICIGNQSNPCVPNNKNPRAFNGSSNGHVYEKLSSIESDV
# UniProt Q62083: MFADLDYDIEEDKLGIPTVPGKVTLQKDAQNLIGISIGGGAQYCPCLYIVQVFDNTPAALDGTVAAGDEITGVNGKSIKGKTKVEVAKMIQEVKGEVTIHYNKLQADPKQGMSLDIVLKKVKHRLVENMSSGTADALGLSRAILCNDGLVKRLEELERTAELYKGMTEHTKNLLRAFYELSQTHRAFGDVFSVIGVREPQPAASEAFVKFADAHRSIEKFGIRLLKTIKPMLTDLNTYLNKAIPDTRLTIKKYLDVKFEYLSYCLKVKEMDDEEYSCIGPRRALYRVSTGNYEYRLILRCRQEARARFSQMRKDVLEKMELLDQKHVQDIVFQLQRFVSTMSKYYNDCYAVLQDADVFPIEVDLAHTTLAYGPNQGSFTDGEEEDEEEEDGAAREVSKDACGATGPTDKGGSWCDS
# No constants are given. Whether binding was seen depends on the method and setting. Binding seen in cells or lysates may run through a third protein. A result given as binding can be weak or reduced; the word gives no strength.
# Experiments:
# [1] = molecular target: NR2B-S2A (non-phosphorylatable derivative of NR2B), Flag-tagged (UniProt Q01097); assay: co-IP; HEK293T cells co-transfected with NR2B-Flag (WT, S2A or S2E), PKCα-HA and PICK1-Myc, lysed 36 h after transfection (50 mM Tris-HCl pH 7.4, 1% Triton X-100, 1 mM EDTA, 10 mM NaF, 1 mM Na3VO4); IP with mouse anti-DDDDK, anti-HA or anti-Myc antibody or control IgG, 6 h at 4 °C, protein A/G agarose overnight; blots with rabbit anti-tag antibodies
# [2] = molecular target: NR2B-S2E (phosphorylation-mimicking derivative of NR2B), Flag-tagged (UniProt Q01097); assay: as above
substance,measurement,setting,value
"protein interacting with C kinase 1 (PICK1), Myc-tagged (from UniProt Q62083 1-416)",binding,[1],binds
same,binding,[2],binds
